Construct, isoform or probe ends are uncertain for at least one entry. Results from cells or extracts need not show a direct contact.
Tested on: PCBP2 endogenous + SYNCRIP (hnRNPQ) endogenous
Test: EMSA ultrashift
Settings: both antibodies; EMSA: REMSA binding buffer (LightShift kit), 4 ug extract, 0.5 pmol biotin-RNA, 30 min room temperature, native 6% PAGE 0.5x TBE; protein in an extract; label: 5' biotin

CUCCUACCUGUUAGCAUUAAC [miR-155-3p WT (Table 1: miR-155b-3p WT)]
binding result: binds
